This test deals with T1, Sulfolobus acidocaldarius TATA-binding protein (Sulfolobus acidocaldarius) (UniProt Q9UWN7).
T1 sequence: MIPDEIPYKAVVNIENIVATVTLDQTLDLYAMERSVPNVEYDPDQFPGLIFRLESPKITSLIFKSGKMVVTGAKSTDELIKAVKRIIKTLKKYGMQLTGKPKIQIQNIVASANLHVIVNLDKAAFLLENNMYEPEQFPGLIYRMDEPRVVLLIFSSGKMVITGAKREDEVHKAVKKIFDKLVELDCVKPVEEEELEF
The experiment in a line: native gel or EMSA; SaTBP and SaTFB incubated with promoter DNA (DNA_SSV); ternary complex on DNA; supershift with anti-SaTFB and anti-SaTBP antibodies; conditions are in Supplementary Figure S4; both purified.

Results are given in words; binding and its absence hold for the method and conditions named. A result given as binding can be weak or reduced; the word gives no strength.

As to “Sulfolobus acidocaldarius transcription factor B (TFB1), C-terminally His-tagged”, the binding result is reported as “binds”.

Values taken from publication PMC4041446, “Eukaryotic and archaeal TBP and TFB/TF(II)B follow different promoter DNA bending pathways”.
